Primary screen of a compound library

Chains of the proteins cited; added tags and fusions are not shown.
UniProt E9BF75, entry or part of it: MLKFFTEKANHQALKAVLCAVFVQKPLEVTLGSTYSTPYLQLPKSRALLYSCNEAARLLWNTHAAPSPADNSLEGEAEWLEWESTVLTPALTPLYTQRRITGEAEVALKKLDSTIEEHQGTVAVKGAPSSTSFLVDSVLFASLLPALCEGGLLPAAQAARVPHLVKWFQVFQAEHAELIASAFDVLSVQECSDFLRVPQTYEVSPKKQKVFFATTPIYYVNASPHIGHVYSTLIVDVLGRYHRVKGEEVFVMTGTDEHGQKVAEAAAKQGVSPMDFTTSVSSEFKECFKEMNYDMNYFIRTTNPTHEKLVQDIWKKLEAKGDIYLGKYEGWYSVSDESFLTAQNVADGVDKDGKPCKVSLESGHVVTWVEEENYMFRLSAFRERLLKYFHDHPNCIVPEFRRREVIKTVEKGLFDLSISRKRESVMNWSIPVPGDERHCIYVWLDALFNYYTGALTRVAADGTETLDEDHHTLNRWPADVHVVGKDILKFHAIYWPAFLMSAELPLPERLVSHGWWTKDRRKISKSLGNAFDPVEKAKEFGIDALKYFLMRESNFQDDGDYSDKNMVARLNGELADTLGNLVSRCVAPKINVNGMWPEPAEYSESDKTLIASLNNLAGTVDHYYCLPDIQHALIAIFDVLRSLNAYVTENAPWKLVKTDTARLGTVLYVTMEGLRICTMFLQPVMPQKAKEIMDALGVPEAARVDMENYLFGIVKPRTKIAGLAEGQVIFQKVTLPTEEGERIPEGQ

From ChEMBL document CHEMBL3988442, “University of Dundee, Small-Polar-MMV Screening Library” (2021).

A: 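Assay on Mycobacterium tuberculosis, filed only as a heat shock assay from Cornell; the read-out is not stated. The concentration is filed as 10 mM, unlikely as a test dose, so the dose is not known. Higher reads as stronger inhibition (inferred: compounds with an IC50 in retests scored well above the rest). About 69,000 compounds were tested under these conditions; 1.4% (about 930) showed 50% or more at least once.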
B: 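Whole-cell assay for inhibitors of Mycobacterium tuberculosis growth, labelled Cornell in the record; the read-out is not stated. The concentration is filed as 10 mM, unlikely as a test dose, so the dose is not known. The record gives no direction; compounds strong in two other growth screens of this library score well above the rest, so higher reads as stronger inhibition. Size under these conditions: about 53,000 compounds, about 900 of them at 50% or above in at least one test.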
C: 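Primary screen of methionyl-tRNA synthetase; the read-out is not stated. Target: Methionyl-tRNA synthetase (putative), Leishmania donovani (UniProt E9BF75). The test concentration is not given. The values are filed as inhibition. Of about 68,000 compounds tested this way, about 24 (0.035%) reached 50% or more in at least one test.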

Results are percentages, as filed.
The record does not define 0% and 100%; most values in the screen are far below 50% and negative numbers occur (in some assays of this library far below -100).
The compounds are a random part of those screened.

For CC(C)c1nccn1C1CCCN(C(=O)c2cnn(C)c2C2CC2)C1 (stereo not shown) the result was A: 4.762%; B: 20.47%; C: 7.874%. CC(CNC(=O)c1nnn(-c2ccccc2)c1C(F)(F)F)N(C)C (stereo not shown) gave A: -22.48%; B: 29.95%; C: 16.33%. Cn1ccnc1C1CCCN(C(=O)c2ccc3nccnc3c2)C1 (stereo not shown) gave A: -5.323%; B: -14.5%; C: 24.36%. With COCCNC(=O)CSCc1nc(O)c2cc(C(C)C)sc2n1 the screen gave A: 6.964%; B: -18.87%; C: -4.416%.

Result for O=C(NC1CCCc2nc(N3CCOCC3)ncc21)C1CCCC1 (stereo not shown) was A: -0.2681%; B: 18.65%; C: 9.896%. Result for Cn1ccc(C(=O)NCc2ccc(Cn3ccnc3)cc2)cc1=O was A: -16.43%; B: 3.979%; C: 14.18%. With [H][C@]12CC[C@]([H])(CN(C(=O)Cn3c(C)cc(C)nc3=O)C1)N(CCC)C2 the screen gave A: 14.72%; B: 17.92%. For CN(C)C(=O)N1CCN(Cc2nnc(C(C)(C)C)o2)CC1 the result was A: -6.816%; C: 9.783%.

Result for COCc1nc(N(C)C)ncc1C(=O)Nc1ccn(C)n1 was A: 3.299%; C: 10.37%. Result for CO[C@H]1CC[C@H]2[C@H]1OCCN2C(=O)c1ccc(C)nc1 was C: 16.44%. O=C(O)c1csc(S(=O)(=O)Nc2c(F)cccc2-n2cccn2)c1 gave A: -46.12%; B: -80.25%; C: 7.958%. CCOc1ccccc1OC1CCN(C(=O)c2csnn2)CC1 read A: -18.07%; C: 20.67%.

Result for Cn1ccnc1CN1CCN(CC(O)c2cc(F)ccc2F)CC1 (stereo not shown) was A: -3.792%; C: 13.81%. Result for Fc1ccccc1Cc1noc(CN2CC[C@@H]3CCCC[C@H]3C2)n1 was C: 12.26%. CNc1ncc(CN(C)C(=O)c2ccc(C3CCCO3)s2)cn1 (stereo not shown) read A: 28.97%; B: 18.11%; C: 3.873%. CC(c1ccon1)N(C)Cc1cc(O)c2cc(F)ccc2n1 (stereo not shown) read A: -22.42%; B: 19.68%; C: 2.326%.

Result for CSc1ncccc1C(=O)N1C[C@H]2CC[C@@H]1CN(CC(=O)N(C)C)C2 was C: -7.358%. Cc1cccc(CN2C[C@@H]3OCCN(C)[C@@H]3C2)n1 gave C: 11.42%. With COCCn1cc(NC(=O)NC(C)Cc2c(F)cccc2F)cn1 (stereo not shown) the screen gave A: -22.35%; B: -32.72%; C: 8.309%. Result for O=C(O)C(F)(F)F.O=C(O)C(F)(F)F.[H][C@@]12CN(Cc3cnn(C)c3)C[C@]1([H])OCCN2c1ccc(C)nn1 was A: 3.052%; B: -10.28%.

With Cc1nnc(-c2cccc(N3CCC(NC(C)CC(C)C)CC3)c2)s1 (stereo not shown) the screen gave A: 13.73%; C: 9.966%. CCN1CCN(CC(O)c2ccc(Br)cc2)CC1 (stereo not shown) gave A: 20.08%; B: -2.957%; C: 10.6%. O=C(O)C(F)(F)F.O=C(O)C(F)(F)F.O=C(O)C(F)(F)F.[H][C@@]12CO[C@@H](CN3CCN(C)CC3)[C@]1([H])CCN(Cc1ccsc1)C2 read A: -1.061%; B: 4.843%. OC(COCc1ccc(Cl)cc1)CN1CCC(c2ccn[nH]2)CC1 (stereo not shown) gave A: 15.23%; B: -1.37%; C: 11.74%.

O=C(O)C(F)(F)F.[H][C@@]12C[C@@H](OCc3ccccc3)CN1CCN(C(=O)c1cnccn1)C2 gave A: -16.35%; B: -2.523%. OC(COc1ccc(F)cc1)CN1CCC(Cn2cccn2)CC1 (stereo not shown) read A: 15.08%; B: 29.07%; C: 19.16%. CS(=O)(=O)N1CCC2(COCc3cnc(-c4ccccc4)nc32)C1 (stereo not shown) gave A: -2.878%; B: -34.5%; C: 5.376%. Cc1nc(C)n(CC2CCCCN2Cc2nc(-c3ccoc3)no2)n1 (stereo not shown) gave A: -25.48%; C: 17.49%.

CCOc1ccc(CN2C(=O)CC(C)(C)C2=O)nc1 gave A: 15.82%; B: -17.86%; C: 0%. OCCC[C@@H]1CN(c2ncc(Cl)cc2Cl)CC[C@@H]1N1CCOCC1 read A: -21.14%; B: 19%; C: -0.2584%. For CN(C)S(=O)(=O)N1C[C@@H]2CN(Cc3ccoc3)CCO[C@@H]2C1 the result was C: 6.383%.